Laboratory results published in PubChem BioAssay AID1567 (National Center for Advancing Translational Sciences (NCATS), 2009).
The inconclusive results got no clear call from the source; some entries with a clear call stand among them for comparison. Where the call is inconclusive, the potency comes from a doubtful curve fit. Activity calls are given as the source filed them. Calls follow the shape of the dose curve; as a rule, active = well fitted inhibition curve with a large enough effect; inconclusive = small, poorly fitted or top-dose-only effect, or effect the other way; inactive = no such curve, though single readings can be large or run the other way.

Protein sequences, listed by entry. Tags and fused reporters are not part of them. Lines headed by an entry give the natural chain unless they say otherwise; changes in a name come on top.
UniProt P10828: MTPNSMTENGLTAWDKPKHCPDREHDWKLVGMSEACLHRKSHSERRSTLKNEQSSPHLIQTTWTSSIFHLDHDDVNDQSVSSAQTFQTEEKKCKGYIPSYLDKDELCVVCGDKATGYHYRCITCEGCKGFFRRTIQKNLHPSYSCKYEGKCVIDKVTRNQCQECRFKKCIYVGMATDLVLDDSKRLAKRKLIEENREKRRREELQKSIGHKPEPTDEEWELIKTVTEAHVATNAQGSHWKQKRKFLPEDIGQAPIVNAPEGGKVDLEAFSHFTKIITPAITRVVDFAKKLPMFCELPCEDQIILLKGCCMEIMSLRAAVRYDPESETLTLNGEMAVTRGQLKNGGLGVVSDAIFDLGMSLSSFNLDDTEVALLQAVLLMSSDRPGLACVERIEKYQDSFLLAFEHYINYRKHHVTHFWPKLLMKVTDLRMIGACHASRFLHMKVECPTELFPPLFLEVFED

Target: Thyroid hormone receptor beta (Homo sapiens) (UniProt P10828)
Test: Cell-based Gene Reporter Secondary Assay to Characterize qHTS Inhibitors of the Interaction of Thyroid Hormone Receptor and Steroid Receptor Coregulator 2
Conditions: WRO cells TRbeta TRE-luciferase, T3-stimulated, 16 h; series mostly up to 29.9 µM; activity change, negative = inhibition: at the top concentration
Procedure, shortened: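 WRO human follicular thyroid carcinoma cells stably expressing TRbeta and a TRE-luciferase reporter, in charcoal-treated serum medium. Compounds added with T3 at 100 nM final, 16 h at 37 °C; readout is luminescence.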

Q: For `COc1cc(C(c2c(C)[nH][nH]c2=O)c2c(C)[nH][nH]c2=O)ccc1OC(=O)c1ccccc1OC`, which Potency is on record?
A: inconclusive: 0.1 µM [activator, full curve, poor fit]

Q: `C=CCNC(=O)/C(C#N)=C/c1c(C)nn(-c2ccc(Cl)cc2)c1Cl` was tested. Which Potency did it give?
A: inconclusive: 22.4 µM [inhibitor, single point]

Q: `CC(=O)c1cccc(NC(=O)COC(=O)c2ccc(S(C)(=O)=O)c([N+](=O)[O-])c2)c1` was tested. Which Potency did it give?
A: inconclusive: 25.1 µM [activator, single point]

Q: With `COc1cc(C(c2c(C)[nH][nH]c2=O)c2c(C)[nH][nH]c2=O)ccc1OC(=O)c1cccc(C)c1` as the molecule, how does the Potency read?
A: inconclusive: 15.8 µM [activator, partial curve, poor fit]

Q: Which “activity change, negative = inhibition” value does the source give for `COc1ccc2ccc3c(c2c1)N=CC1(O3)N(C)c2ccccc2C1(C)C` (configuration not stated) here?
A: inactive: -22.8%

Q: Which Potency does the source give for `Cc1ccccc1Nc1cc2ccccc2c(=O)[nH]1` here?
A: inconclusive: 17.8 µM [activator, partial curve, poor fit]

Q: With `Oc1ccc2ccccc2c1/C=N/c1nc2c(s1)CCCC2` as the molecule, how does the Potency read?
A: inconclusive: 20 µM [inhibitor, partial curve, poor fit]

Q: `Cc1cccc(Cn2c(C(=O)OC(C)C)cc3c2ccn3C)c1` was tested. Which Potency did it give?
A: inconclusive: 0.0398 µM [activator, full curve, poor fit]

Q: Which Potency does the source give for `COc1ccc2c(c1)-c1nc(/N=C/c3c(O)ccc4ccccc34)sc1CC2` here?
A: inconclusive: 12.6 µM [activator, partial curve, poor fit]

Q: `CN1c2ccccc2C(C)(C)C12C=Nc1c(cc(N3CCOCC3)c3ccccc13)O2` (configuration not stated) was tested. Which “activity change, negative = inhibition” value did it give?
A: inactive: 13.7%

Q: How did the Potency turn out when `O=C1CCCC(O)=C1N=Nc1cccc(S(=O)(=O)N2CCOCC2)c1` was run?
A: inconclusive: 0.631 µM [activator, full curve, poor fit]

Q: With `Cn1cc(/C=C2\SC(=S)N(NC(=O)c3ccccc3)C2=O)c2ccccc21` as the molecule, how does the “activity change, negative = inhibition” value read?
A: inactive: 2.16%
